Drawing on publication doi:10.1101/2025.11.14.688441, this text covers binding for 5 molecules.

Chains of the proteins cited; added tags and fusions are not shown.
UniProt Q8BX22: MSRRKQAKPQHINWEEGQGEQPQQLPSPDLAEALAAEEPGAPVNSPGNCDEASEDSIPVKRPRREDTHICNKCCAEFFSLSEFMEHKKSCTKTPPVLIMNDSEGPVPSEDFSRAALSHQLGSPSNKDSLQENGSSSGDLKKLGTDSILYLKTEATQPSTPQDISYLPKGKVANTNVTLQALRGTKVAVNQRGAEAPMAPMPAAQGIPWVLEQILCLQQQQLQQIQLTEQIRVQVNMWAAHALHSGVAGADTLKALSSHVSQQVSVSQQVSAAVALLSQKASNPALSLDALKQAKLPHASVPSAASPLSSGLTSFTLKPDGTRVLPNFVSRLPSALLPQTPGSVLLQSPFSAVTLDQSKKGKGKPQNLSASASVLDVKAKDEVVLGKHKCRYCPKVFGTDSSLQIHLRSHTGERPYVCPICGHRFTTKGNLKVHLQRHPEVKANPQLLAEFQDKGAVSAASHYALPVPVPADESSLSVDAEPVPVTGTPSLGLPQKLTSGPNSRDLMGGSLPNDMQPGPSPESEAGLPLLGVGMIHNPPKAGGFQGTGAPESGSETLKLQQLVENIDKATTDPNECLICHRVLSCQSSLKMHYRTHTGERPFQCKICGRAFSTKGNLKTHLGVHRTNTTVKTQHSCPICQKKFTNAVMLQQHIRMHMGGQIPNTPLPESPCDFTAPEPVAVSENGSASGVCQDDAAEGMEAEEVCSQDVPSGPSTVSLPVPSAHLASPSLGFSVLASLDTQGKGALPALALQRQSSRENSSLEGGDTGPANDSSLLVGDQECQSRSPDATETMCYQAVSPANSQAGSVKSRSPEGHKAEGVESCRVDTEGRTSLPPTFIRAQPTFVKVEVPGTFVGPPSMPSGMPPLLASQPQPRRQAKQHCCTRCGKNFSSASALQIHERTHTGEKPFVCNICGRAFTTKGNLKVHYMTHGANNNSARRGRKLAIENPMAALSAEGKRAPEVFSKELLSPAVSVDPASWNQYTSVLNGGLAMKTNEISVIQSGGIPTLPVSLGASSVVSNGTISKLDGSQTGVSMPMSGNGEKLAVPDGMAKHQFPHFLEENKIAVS

Results are given in words; binding and its absence hold for the method and conditions named. Binding seen in cells or lysates may run through a third protein. Here binding means that the protein was enriched with, or labelled near, the bait; the list need not be complete.

The target of the assay is SALL4 (wild-type, endogenous in mouse embryonic stem cells) (mouse (endogenous in E14Ju09 ESCs)) (UniProt Q8BX22). The assay is described as follows: affinity purification with mass spectrometry.

B1: SALL2 (protein, UniProt Q9QX96 1-1004)
chain: MSRRKQRRPQQLISDCEGPSASENGDASEEDHPQVCAKCCAQFSDPTEFLAHQNSCCTDPPVMVIIGGQENPSNSSASSAPRPEGHSRSQVMDTEHSNPPDSGSSGAPDPTWGPERRGEESSGQFLVAATGTAAGGGGGLILASPKLGATPLPPESTPAPPPPPPPPPPPGVGSGHLNIPLILEELRVLQQRQIHQMQMTEQICRQVLLLGSLGQTVGAPASPSELPGTGAASSTKPLLPLFSPIKPAQTGKTLASSSSSSSSSGAEPPKQAFFHLYHPLGSQHPFSVGGVGRSHKPTPAPSPALPGSTDQLIASPHLAFPGTTGLLAAQCLGAARGLEAAASPGLLKPKNGSGELGYGEVISSLEKPGGRHKCRFCAKVFGSDSALQIHLRSHTGERPYKCNVCGNRFTTRGNLKVHFHRHREKYPHVQMNPHPVPEHLDYVITSSGLPYGMSVPPEKAEEEAGTPGGGVERKPLVASTTALSATESLTLLSTGTSTAVAPGLPTFNKFVLMKAVEPKSKADENTPPGSEGSAIAGVADSGSATRMQLSKLVTSLPSWALLTNHLKSTGSFPFPYVLEPLGASPSETSKLQQLVEKIDRQGAVAVASTASGAPTTSAPAPSSSASGPNQCVICLRVLSCPRALRLHYGQHGGERPFKCKVCGRAFSTRGNLRAHFVGHKTSPAARAQNSCPICQKKFTNAVTLQQHVRMHLGGQIPNGGSALSEGGGAAQENSSEQSTASGPGSFPQPQSQQPSPEEEMSEEEEEDEEEEEDVTDEDSLAGRGSESGGEKAISVRGDSEEVSGAEEEVATSVAAPTTVKEMDSNEKAPQHTLPPPPPPPDNLDHPQPMEQGTSDVSGAMEEEAKLEGTSSPMAALTQEGEGTSTPLVEELNLPEAMKKDPGESSGRKACEVCGQSFPTQTALEEHQKTHPKDGPLFTCVFCRQGFLDRATLKKHMLLAHHQVPPFAPHGPQNIATLSLVPGCSSSIPSPGLSPFPRKDDPTMP
With B1, the binding result is “binds”.

B2: SALL1 (protein, UniProt Q9ER74 1-1322)
chain: MSRRKQAKPQHFQSDPEVASLPRRDGDTEKGQPSRPTKSKDAHVCGRCCAEFFELSDLLLHKKSCTKNQLVLIVNESPASPAKTFPPGPSLNDPDDQMKDAANKADQEDCSDLSEPKGLDREESMEVEVPVATTTTTTTGGSGGSGGSTLSGVTNITTPSCHSGCSSGTSAITTSLPQLGDLTTLGNFSVINSNVIIENLQSTKVAVAQFSQEARCGGASGGKLLISTLMEQLLALQQQQIHQLQLIEQIRHQILLLASQSADLPAAPSIPSQGTLRTSANPLTTLSSHLSQQLAVAAGLAQSLASQSANISGVKQLPHVQLPQSSSGTSIVPPSGGTSPNMSIVTAAVPTPSSEKVASNAGASHVSSPAVSASSSPAFAISSLLSPESNPLLPQPTPANAVFPTPLPNIATTAEDLNSLSALAQQRKSKPPNVTAFEAKSTSDEAFFKHKCRFCAKVFGSDSALQIHLRSHTGERPFKCNICGNRFSTKGNLKVHFQRHKEKYPHIQMNPYPVPEHLDNVPTSTGIPYGMSIPSEKPVTSWLDTKPVLPTLTTSVGLPLPPTLPSLTPFIKTEEPAPIPISHSAASPQGSVKSDSGAPDLATRNPSGVPEEVEGSAVPPFGGKGEESNMASSAVPTAGNSTLNSPVADGGPGGTTFTNPLLPLMSEQFKAKFPFGGLLDSAQASETSKLQQLVENIDKKATDPNECIICHRVLSCQSALKMHYRTHTGERPFKCKICGRAFTTKGNLKTHYSVHRAMPPLRVQHSCPICQKKFTNAVVLQQHIRMHMGGQIPNTPVPDNYPESMESDTGSFDEKNFDDLDNFSDENMEECPEGSIPDTPKSADASQDSLSSSPLPLEMSSIAALENQMKMINAGLAEQLQASLKSVENGSMEGDVLTNDSSSVGGDMESQSAGSPAISESTSSMQALSPSNSTQEFHKSPGMEEKPQRVGPGEFANGLSPTPVNGGALDLTSSHAEKIIKEDSLGILFPFRDRGKFKNTACDICGKTFACQSALDIHYRSHTKERPFICTVCNRGFSTKGNLKQHMLTHQMRDLPSQLFEPSSNLGPNQNSAVIPANSLSSLIKTEVNGFVHVSPQDSKDAPTSHVPQGPLSSSATSPVLLPALPRRTPKQHYCNTCGKTFSSSSALQIHERTHTGEKPFACTICGRAFTTKGNLKVHMGTHMWNSTPARRGRRLSVDGPMTFLGGNPVKFPEMFQKDLAARSGSGDPSSFWNQYTAALSNGLAMKANEISVIQNGGIPPIPGSLGSGSSPISGLTGNVEKLGNSEPSAPLAGLEKMASSENGTNFRFTRFVEDSKEIVTS
Regarding B2, the binding result was “binds”.

B3: BEND3 (protein, UniProt Q6PAL0 1-825)
chain: MNSTEISEDVEEVLKNNPVKAEGSDATLDCSRNSRASEKHLLESVLTALHDSSKRKQLDSDGQPDSVPSVKRRRLIPEALLAGMRTRENSSPCQGNGEPASRGRSGSCAWPAEEEPSTEATVPSYKKPLYGISHKIMEKKNPPSGDLLSPYELFEKANSSSGPSPLRLLSESQKRECGVGVATDGDLNIYFLIQKMFYMLNGLTTNMSQLHSKMDLLSLEVSRVKKQVSPSELVAKFQPPPEYQLTASELKQIAEQSLSCGDLACRLLLQLFPELFSDVDFSRGCSACGFAAKRKLESLHLQLIRNYVEVYYPNVKDTAVWQAECLPQLNDFFSRFWAQREMEDSQPGGQVTNFFEADQVDAGHFLDNKDQEEALSLDRSSTIASDHVVDTQDLTEFLDEASSPGEFAVFLLHRLFPELFDHRKLGEQYSCYGDGGKQELDPQRLQIIRNYTEIYFPDMQEEEAWLQQCAQRINDELEGLGLEGGSEGEAPRDDCYDSSSLPDDISVVKVEDNFEGERPGRRSKKIWLVPIDFDKLEIPQPDFEMPGSDCLLSKEQLRSIYESSLSIGNFASRLLVHLFPELFTHENLRKQYNCSGSLGKKQLDPARIRLIRHYVQLLYPRAKNDRVWTLEFVGKLDERCRRRDTEQRRSYQQQRKVHVPGPECRDLASYAINPERFREEFEGPPLPPERSSKDFCKIPLDELVVPSPDFPVPSPYLLSDKEVREIVQQSLSVGNFAARLLVRLFPELFTTENLRLQYNHSGACNKKQLDPTRLRLIRHYVEAVYPVEKMEEVWHYECIPSIDERCRRPNRKKCDILKKAKKVEK
Turning to B3, the binding result is given as “binds”.

B4: CDK2AP1 (protein, UniProt O35207 1-114)
chain: MSYKPNLTAHMPAAALNAGSVHSPSTSMATSSQYRQLLSDYGPPSLGYTQGTGNSQVPQSKYAELLAIIEELGKEIRPTYAGSKSAMERLKRGIIHARSLVRECLAETERNARS
As to B4, the binding entry is “binds”.

B5: SALL3 (protein, UniProt Q62255 1-1320)
chain: MSRRKQAKPQHLKSDEELPPQDGASEHGVPGDGAEDADSGSESRSGSEETSVCEKCCAEFFKWADFLQHKKTCTKNPLVLIVHDDEPAPPSEDFPEPSPASSPSDRTESEVAEEVAPTEGSEVKAATKEAEPMDVEVSTDKGPPGPSVPPPPPALPPQPEPAAFSMPSTNVTLETLLSTKVAVAQFSQGARAGGTTGAGGSVGAVAIPMILEQLVALQQQQIHQLQLIEQIRSQVALMSRQPGPPLKPSASAPGTASVQLQGLTPHAALQLSAGPATASAGSGSTLPAAFDGPQHLSQPASGTSTPCSTSAAPPDSGAHPACSTGPAPGAVAAASSTVGNAVQPQNASTPPALGPGPLLSSASNLPNPLLPQTSSSSVIFPNPLVSIAATANALDPLSALMKHRKGKPPNVSVFEPKASAEDPFFKHKCRFCAKVFGSDSALQIHLRSHTGERPFKCNICGNRFSTKGNLKVHFQRHKEKYPHIQMNPYPVPEYLDNVPTCSGIPYGMSLPPEKPVTTWLDSKPVLPTVPTSVGLQLPPTVPGTHNYTDSPSITPVSRSPQRPSPASSECTSLSPGLNNTESGITVRPESPQPLLGGPSLTKAEPVSLPCTSTRTGDAPVVGGQVSGLPTSAATAVTDSACTSLGSPGLPAVSDQFKAQFPFGGLLDSMQTSETSKLQQLVENIDKKMTDPNQCVICHRVLSCQSALKMHYRTHTGERPFKCKICGRAFTTKGNLKTHFGVHRAKPPLRVQHSCPICQKKFTNAVVLQQHIRMHMGGQIPNTPLPEGLQEAMDADLPFDEKNAETLSSFDDDIDENSMEEDSELKDTASDSSKPLLSYSGSCPPSPPSVISSIAALENQMKMIDSVMNCQQLANLKSVENGSGESDRLSNDSSSAVGDLESRSAGSPALSESSSSQALSPAHSNGESFRSKSPGLGHQEDPQEIPLKTERLDSPPPGPGNGGALDLTAGHPGRPLIKEEAPFSLLFLSRERGKCASTVCGVCGKPFACKSALEIHYRSHTKERRFVCTVCRRGCSTMGNLKQHLLTHKLKELPSQVFDPNFTLGPSHSTPSLASSPAPTMIKMEVNGHSKAIALGEGPALPAGVQVPTGPQTVMSPGLAPMLAPPPRRTPKQHNCQSCGKTFSSASALQIHERTHTGEKPFGCTICGRAFTTKGNLKVHMGTHMWNNAPARRGRRLSVENPMALLGGDALKFSEMFQKDLAARAMNVDPSFWNQYAAAITNGLAMKNNEISVIQNGGIPQLPVSLGGGAIPPLGAMASGVDKARTGSSPPIVSLDKASSETGASRPFARFIEDNKEIGIN
As to B5, the binding entry was “binds”.
